# Measurements reported in the supplement of paper PMC8728848.
# Some of the results follow.
# B1: SUN4 (Saccharomyces cerevisiae), P53616 (protein)
# chain: MGSSHHHHHHSSGLVPRGSHNGSIYGDLADFSGPYEKFEDGTIPCGQFPSGQGVIPISWLDEGGWSGVENTDTSTGGSCKEGSYCSYACQPGMSKTQWPSDQPSDGRSIGGLLCKDGYLYRSNTDTDYLCEWGVDAAYVVSELSNDVAICRTDYPGTENMVIPTYVQAGDSLPLTVVDQDTYYTWQGLKTSAAYYVNNAGISVEDACVWGSSSSGVGNWAPLNFGAGSSDGVAYLSLIPNPNNGNALNFNVKIVAADDSSTVNGECIYENGSFSGGSDGCTVSVTAGKAKFVLYN
# Key:
# Assay in all cases: glycan array binding signal (z-score within array); higher = stronger binding
# Settings in all cases: glycan notation: IUPAC condensed, linker removed; mutation: Q318A
# [1] = molecular target: Neu5Ac(a2-6)Gal(b1-4)GlcNAc(b1-2)Man(a1-3)[GlcNAc(b1-4)][Neu5Ac(a2-6)Gal(b1-4)GlcNAc(b1-2)Man(a1-6)]Man(b1-4)GlcNAc(b1-4)GlcNAc
# Procedure, shortened: (§1)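 Arrays were curated from the Consortium for Functional Glycomics database, 3228 in total, and kept only where the protein sequence was available. Binding is expressed as a within-array Z-score. This score was averaged across arrays of the same protein sequence at different concentrations or buffers and across linkers, and negative values can be read as non-binding.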
# [2] = molecular target: Neu5Ac(a2-6)Gal(b1-4)GlcNAc(b1-2)Man(a1-3)[Man(a1-6)]Man(b1-4)GlcNAc(b1-4)GlcNAc
# Procedure, shortened: as §1
# [3] = molecular target: Neu5Ac(a2-6)Gal(b1-4)GlcNAc(b1-2)Man(a1-3)[Neu5Ac(a2-3)Gal(b1-4)GlcNAc(b1-2)Man(a1-6)]Man(b1-4)GlcNAc(b1-4)GlcNAc
# Procedure, shortened: as §1
# [4] = molecular target: Neu5Ac(a2-6)Gal(b1-4)GlcNAc(b1-2)Man(a1-3)[Neu5Ac(a2-6)Gal(b1-4)GlcNAc(b1-2)Man(a1-6)]Man(b1-4)GlcNAc(b1-4)GlcNAc
# Procedure, shortened: as §1
# [5] = molecular target: Neu5Ac(a2-6)Gal(b1-4)GlcNAc(b1-2)Man(a1-3)[Neu5Ac(a2-6)Gal(b1-4)GlcNAc(b1-2)Man(a1-6)]Man(b1-4)GlcNAc(b1-4)[Fuc(a1-6)]GlcNAc
# Procedure, shortened: as §1
# [6] = molecular target: Neu5Ac(a2-6)Gal(b1-4)GlcNAc(b1-2)Man(a1-6)Man(b1-4)GlcNAc(b1-4)GlcNAc
# Procedure, shortened: as §1
# [7] = molecular target: Neu5Ac(a2-6)Gal(b1-4)GlcNAc(b1-2)Man(a1-6)[Gal(b1-4)GlcNAc(b1-2)Man(a1-3)]Man(b1-4)GlcNAc(b1-4)GlcNAc
# Procedure, shortened: as §1
# [8] = molecular target: Neu5Ac(a2-6)Gal(b1-4)GlcNAc(b1-2)Man(a1-6)[GlcNAc(b1-2)Man(a1-3)]Man(b1-4)GlcNAc(b1-4)GlcNAc
# Procedure, shortened: as §1
# [9] = molecular target: Neu5Ac(a2-6)Gal(b1-4)GlcNAc(b1-2)Man(a1-6)[Man(a1-3)]Man(b1-4)GlcNAc(b1-4)GlcNAc
# Procedure, shortened: as §1
# [10] = molecular target: Neu5Ac(a2-6)Gal(b1-4)GlcNAc(b1-2)[Neu5Ac(a2-6)Gal(b1-4)GlcNAc(b1-4)]Man(a1-3)[GlcNAc(b1-4)][Neu5Ac(a2-6)Gal(b1-4)GlcNAc(b1-2)[Neu5Ac(a2-6)Gal(b1-4)GlcNAc(b1-6)]Man(a1-6)]Man(b1-4)GlcNAc(b1-4)GlcNAc
# Procedure, shortened: as §1
# [11] = molecular target: Neu5Ac(a2-6)Gal(b1-4)GlcNAc(b1-2)[Neu5Ac(a2-6)Gal(b1-4)GlcNAc(b1-4)]Man(a1-3)[GlcNAc(b1-4)][Neu5Ac(a2-6)Gal(b1-4)GlcNAc(b1-4)Man(a1-6)]Man(b1-4)GlcNAc(b1-4)GlcNAc
# Procedure, shortened: as §1
# [12] = molecular target: Neu5Ac(a2-6)Gal(b1-4)GlcNAc(b1-2)[Neu5Ac(a2-6)Gal(b1-4)GlcNAc(b1-6)]Man(a1-6)[Neu5Ac(a2-6)Gal(b1-4)GlcNAc(b1-2)Man(a1-3)][GlcNAc(b1-4)]Man(b1-4)GlcNAc(b1-4)GlcNAc
# Procedure, shortened: as §1
# [13] = molecular target: Neu5Ac(a2-6)Gal(b1-4)GlcNAc(b1-3)Gal(b1-3)GlcNAc
# Procedure, shortened: as §1
# [14] = molecular target: Neu5Ac(a2-6)Gal(b1-4)GlcNAc(b1-3)Gal(b1-4)GlcNAc
# Procedure, shortened: as §1
# [15] = molecular target: Neu5Ac(a2-6)Gal(b1-4)GlcNAc(b1-3)Gal(b1-4)GlcNAc(b1-2)Man(a1-3)[Neu5Ac(a2-6)Gal(b1-4)GlcNAc(b1-3)Gal(b1-4)GlcNAc(b1-2)Man(a1-6)]GalNAc
# Procedure, shortened: as §1
# [16] = molecular target: Neu5Ac(a2-6)Gal(b1-4)GlcNAc(b1-3)Gal(b1-4)GlcNAc(b1-3)Gal(b1-4)GlcNAc
# Procedure, shortened: as §1
# [17] = molecular target: Neu5Ac(a2-6)Gal(b1-4)GlcNAc(b1-3)Gal(b1-4)GlcNAc(b1-3)Gal(b1-4)GlcNAc(b1-2)Man(a1-3)[Neu5Ac(a2-6)Gal(b1-4)GlcNAc(b1-3)Gal(b1-4)GlcNAc(b1-3)Gal(b1-4)GlcNAc(b1-2)Man(a1-6)]GalNAc
# Procedure, shortened: as §1
# [18] = molecular target: Neu5Ac(a2-6)Gal(b1-4)GlcNAc(b1-3)Gal(b1-4)GlcNAc(b1-3)GalNAc
# Procedure, shortened: as §1
# [19] = molecular target: Neu5Ac(a2-6)Gal(b1-4)GlcNAc(b1-3)Gal(b1-4)GlcNAc(b1-3)[Neu5Ac(a2-6)Gal(b1-4)GlcNAc(b1-3)Gal(b1-4)GlcNAc(b1-6)]GalNAc
# Procedure, shortened: as §1
# [20] = molecular target: Neu5Ac(a2-6)Gal(b1-4)GlcNAc(b1-3)Gal(b1-4)GlcNAc(b1-6)[Gal(b1-3)]GalNAc
# Procedure, shortened: as §1
# [21] = molecular target: Neu5Ac(a2-6)Gal(b1-4)GlcNAc(b1-3)Gal(b1-4)[Fuc(a1-3)]GlcNAc(b1-3)Gal(b1-4)[Fuc(a1-3)]GlcNAc
# Procedure, shortened: as §1
# [22] = molecular target: Neu5Ac(a2-6)Gal(b1-4)GlcNAc(b1-3)GalNAc
# Procedure, shortened: as §1
# [23] = molecular target: Neu5Ac(a2-6)Gal(b1-4)GlcNAc(b1-3)[Neu5Ac(a2-6)Gal(b1-4)GlcNAc(b1-6)]GalNAc
# Procedure, shortened: as §1
# [24] = molecular target: Neu5Ac(a2-6)Gal(b1-4)GlcNAc(b1-6)GalNAc
# Procedure, shortened: as §1
# [25] = molecular target: Neu5Ac(a2-6)Gal(b1-4)GlcNAc(b1-6)[Gal(b1-3)GlcNAc(b1-3)]Gal(b1-4)Glc
# Procedure, shortened: as §1
# [26] = molecular target: Neu5Ac(a2-6)Gal(b1-4)GlcNAc(b1-6)[Gal(b1-3)]GalNAc
# Procedure, shortened: as §1
# [27] = molecular target: Neu5Ac(a2-6)Gal(b1-4)GlcNAc6S
# Procedure, shortened: as §1
# [28] = molecular target: Neu5Ac(a2-6)GalNAc
# Procedure, shortened: as §1
# [29] = molecular target: Neu5Ac(a2-6)GalNAc(b1-4)GlcNAc
# Procedure, shortened: as §1
# [30] = molecular target: Neu5Ac(a2-6)GalNAc(b1-4)GlcNAc6S
# Procedure, shortened: as §1
# [31] = molecular target: Neu5Ac(a2-6)GlcNAc(b1-4)GlcNAc
# Procedure, shortened: as §1
binder,measurement,setting,value
B1,glycan array binding signal (z-score),[1],-0.109
same,glycan array binding signal (z-score),[2],-1
same,glycan array binding signal (z-score),[3],-0.559
same,glycan array binding signal (z-score),[4],0.106
same,glycan array binding signal (z-score),[5],-0.42
same,glycan array binding signal (z-score),[6],0.446
same,glycan array binding signal (z-score),[7],-1.2
same,glycan array binding signal (z-score),[8],-0.548
same,glycan array binding signal (z-score),[9],-0.205
same,glycan array binding signal (z-score),[10],-0.64
same,glycan array binding signal (z-score),[11],-0.278
same,glycan array binding signal (z-score),[12],-0.221
same,glycan array binding signal (z-score),[13],-0.654
same,glycan array binding signal (z-score),[14],-0.838
same,glycan array binding signal (z-score),[15],0.356
same,glycan array binding signal (z-score),[16],-0.205
same,glycan array binding signal (z-score),[17],1.09
same,glycan array binding signal (z-score),[18],-1.86
same,glycan array binding signal (z-score),[19],0.297
same,glycan array binding signal (z-score),[20],-0.734
same,glycan array binding signal (z-score),[21],0.008
same,glycan array binding signal (z-score),[22],-0.811
same,glycan array binding signal (z-score),[23],-0.809
same,glycan array binding signal (z-score),[24],0.741
same,glycan array binding signal (z-score),[25],-0.657
same,glycan array binding signal (z-score),[26],-0.2
same,glycan array binding signal (z-score),[27],-0.549
same,glycan array binding signal (z-score),[28],-0.638
same,glycan array binding signal (z-score),[29],-1.04
same,glycan array binding signal (z-score),[30],0.642
same,glycan array binding signal (z-score),[31],-0.041
